From the supplement of paper PMC10849652
This is one part of the list.

Protein sequences, listed by entry. Tags and fused reporters are not part of them. Lines headed by an entry give the natural chain unless they say otherwise; changes in a name come on top.
UniProt O00161: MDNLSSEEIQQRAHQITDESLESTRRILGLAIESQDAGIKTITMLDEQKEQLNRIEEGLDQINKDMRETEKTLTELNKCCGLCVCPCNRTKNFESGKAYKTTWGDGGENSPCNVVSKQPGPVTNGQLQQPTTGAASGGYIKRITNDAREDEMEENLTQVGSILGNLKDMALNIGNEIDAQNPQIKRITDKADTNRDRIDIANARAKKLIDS
UniProt Q5SQN1: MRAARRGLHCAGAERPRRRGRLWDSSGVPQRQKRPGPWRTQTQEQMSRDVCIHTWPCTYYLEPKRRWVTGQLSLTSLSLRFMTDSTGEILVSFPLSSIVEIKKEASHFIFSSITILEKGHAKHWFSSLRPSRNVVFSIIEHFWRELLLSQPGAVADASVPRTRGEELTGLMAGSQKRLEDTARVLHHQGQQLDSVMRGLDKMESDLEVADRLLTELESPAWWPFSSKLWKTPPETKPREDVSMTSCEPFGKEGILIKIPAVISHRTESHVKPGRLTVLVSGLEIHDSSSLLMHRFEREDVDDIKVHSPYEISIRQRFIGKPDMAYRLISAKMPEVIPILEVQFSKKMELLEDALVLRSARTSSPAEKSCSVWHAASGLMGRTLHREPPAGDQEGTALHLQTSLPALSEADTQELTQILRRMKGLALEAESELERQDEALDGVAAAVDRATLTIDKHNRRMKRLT
UniProt Q9UNH7: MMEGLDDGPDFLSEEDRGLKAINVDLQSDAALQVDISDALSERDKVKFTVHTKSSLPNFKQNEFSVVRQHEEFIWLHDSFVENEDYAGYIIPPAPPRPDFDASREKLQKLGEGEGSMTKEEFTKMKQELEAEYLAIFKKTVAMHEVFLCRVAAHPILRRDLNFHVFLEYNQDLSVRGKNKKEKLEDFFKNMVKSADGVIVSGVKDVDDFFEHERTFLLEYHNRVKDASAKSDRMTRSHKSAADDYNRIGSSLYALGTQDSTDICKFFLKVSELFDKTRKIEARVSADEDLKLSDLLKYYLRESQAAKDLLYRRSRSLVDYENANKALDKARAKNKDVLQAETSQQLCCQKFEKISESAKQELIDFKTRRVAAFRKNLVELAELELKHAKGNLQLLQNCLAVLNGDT
UniProt P57768: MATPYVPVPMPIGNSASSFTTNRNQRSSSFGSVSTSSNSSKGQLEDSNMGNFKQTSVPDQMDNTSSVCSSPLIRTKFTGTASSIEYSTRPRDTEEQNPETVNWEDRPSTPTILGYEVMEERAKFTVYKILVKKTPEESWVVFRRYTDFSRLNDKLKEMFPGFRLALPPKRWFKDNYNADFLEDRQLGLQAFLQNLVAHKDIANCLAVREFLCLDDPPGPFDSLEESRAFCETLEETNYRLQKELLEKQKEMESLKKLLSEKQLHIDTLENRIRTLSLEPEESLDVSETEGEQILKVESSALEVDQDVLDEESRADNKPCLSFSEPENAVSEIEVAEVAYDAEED
UniProt O60749: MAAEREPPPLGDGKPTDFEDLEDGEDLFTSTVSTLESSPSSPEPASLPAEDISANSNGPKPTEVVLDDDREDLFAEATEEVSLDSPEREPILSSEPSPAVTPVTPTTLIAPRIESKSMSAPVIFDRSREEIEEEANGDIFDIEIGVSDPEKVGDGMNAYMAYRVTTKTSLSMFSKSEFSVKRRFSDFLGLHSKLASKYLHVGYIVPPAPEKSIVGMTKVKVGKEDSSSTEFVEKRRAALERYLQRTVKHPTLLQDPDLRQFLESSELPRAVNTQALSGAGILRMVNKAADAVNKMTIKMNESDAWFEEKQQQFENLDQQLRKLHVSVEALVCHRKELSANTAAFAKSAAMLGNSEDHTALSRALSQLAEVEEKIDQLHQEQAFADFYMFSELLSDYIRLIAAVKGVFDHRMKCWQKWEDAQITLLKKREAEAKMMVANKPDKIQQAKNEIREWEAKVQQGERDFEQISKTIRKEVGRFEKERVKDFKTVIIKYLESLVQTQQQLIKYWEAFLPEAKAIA
UniProt Q8IYB5: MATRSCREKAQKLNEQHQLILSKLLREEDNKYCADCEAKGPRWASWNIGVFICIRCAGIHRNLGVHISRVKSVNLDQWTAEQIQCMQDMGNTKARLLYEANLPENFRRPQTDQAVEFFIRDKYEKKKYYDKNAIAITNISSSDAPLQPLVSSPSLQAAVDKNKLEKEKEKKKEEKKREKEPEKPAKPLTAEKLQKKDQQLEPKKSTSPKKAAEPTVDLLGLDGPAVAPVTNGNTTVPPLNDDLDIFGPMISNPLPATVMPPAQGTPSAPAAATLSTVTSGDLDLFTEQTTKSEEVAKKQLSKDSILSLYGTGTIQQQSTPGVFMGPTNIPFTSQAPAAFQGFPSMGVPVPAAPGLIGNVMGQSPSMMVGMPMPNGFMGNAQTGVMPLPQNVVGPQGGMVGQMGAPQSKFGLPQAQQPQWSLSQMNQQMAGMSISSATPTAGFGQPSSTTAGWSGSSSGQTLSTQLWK
UniProt Q86UD5: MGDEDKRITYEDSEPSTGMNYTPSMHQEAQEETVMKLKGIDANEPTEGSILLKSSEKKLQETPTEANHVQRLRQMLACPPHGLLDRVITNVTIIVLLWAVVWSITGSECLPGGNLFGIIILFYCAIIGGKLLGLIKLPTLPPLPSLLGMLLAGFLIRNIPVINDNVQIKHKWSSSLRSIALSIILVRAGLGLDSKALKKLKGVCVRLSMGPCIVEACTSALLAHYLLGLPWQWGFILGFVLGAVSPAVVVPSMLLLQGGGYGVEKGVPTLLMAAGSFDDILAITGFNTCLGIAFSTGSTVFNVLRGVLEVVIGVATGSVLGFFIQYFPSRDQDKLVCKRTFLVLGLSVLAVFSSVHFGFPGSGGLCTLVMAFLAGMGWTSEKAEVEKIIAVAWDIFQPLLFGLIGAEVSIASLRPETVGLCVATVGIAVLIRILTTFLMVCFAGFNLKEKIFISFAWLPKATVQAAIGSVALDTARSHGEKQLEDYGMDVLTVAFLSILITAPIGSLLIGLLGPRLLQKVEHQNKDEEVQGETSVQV
UniProt P08294: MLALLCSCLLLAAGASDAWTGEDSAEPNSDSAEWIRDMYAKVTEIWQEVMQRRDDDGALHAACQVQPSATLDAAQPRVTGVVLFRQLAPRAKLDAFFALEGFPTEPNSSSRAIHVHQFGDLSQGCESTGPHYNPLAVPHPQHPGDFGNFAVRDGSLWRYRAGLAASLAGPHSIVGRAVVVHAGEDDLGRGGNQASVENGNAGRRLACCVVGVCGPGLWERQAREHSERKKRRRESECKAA
UniProt P84022, whole entry, looked up: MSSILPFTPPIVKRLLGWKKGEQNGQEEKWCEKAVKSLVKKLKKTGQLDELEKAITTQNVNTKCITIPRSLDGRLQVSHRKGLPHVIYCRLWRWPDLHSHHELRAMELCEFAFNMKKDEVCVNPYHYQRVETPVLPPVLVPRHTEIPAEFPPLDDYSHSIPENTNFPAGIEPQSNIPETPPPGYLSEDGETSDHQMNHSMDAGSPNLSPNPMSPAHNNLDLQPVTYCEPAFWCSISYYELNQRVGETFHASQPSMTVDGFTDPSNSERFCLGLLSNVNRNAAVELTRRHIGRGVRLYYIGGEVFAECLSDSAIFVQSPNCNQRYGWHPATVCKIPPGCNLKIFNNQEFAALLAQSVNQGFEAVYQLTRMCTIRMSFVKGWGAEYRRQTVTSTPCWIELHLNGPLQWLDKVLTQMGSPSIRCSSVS
UniProt P35712: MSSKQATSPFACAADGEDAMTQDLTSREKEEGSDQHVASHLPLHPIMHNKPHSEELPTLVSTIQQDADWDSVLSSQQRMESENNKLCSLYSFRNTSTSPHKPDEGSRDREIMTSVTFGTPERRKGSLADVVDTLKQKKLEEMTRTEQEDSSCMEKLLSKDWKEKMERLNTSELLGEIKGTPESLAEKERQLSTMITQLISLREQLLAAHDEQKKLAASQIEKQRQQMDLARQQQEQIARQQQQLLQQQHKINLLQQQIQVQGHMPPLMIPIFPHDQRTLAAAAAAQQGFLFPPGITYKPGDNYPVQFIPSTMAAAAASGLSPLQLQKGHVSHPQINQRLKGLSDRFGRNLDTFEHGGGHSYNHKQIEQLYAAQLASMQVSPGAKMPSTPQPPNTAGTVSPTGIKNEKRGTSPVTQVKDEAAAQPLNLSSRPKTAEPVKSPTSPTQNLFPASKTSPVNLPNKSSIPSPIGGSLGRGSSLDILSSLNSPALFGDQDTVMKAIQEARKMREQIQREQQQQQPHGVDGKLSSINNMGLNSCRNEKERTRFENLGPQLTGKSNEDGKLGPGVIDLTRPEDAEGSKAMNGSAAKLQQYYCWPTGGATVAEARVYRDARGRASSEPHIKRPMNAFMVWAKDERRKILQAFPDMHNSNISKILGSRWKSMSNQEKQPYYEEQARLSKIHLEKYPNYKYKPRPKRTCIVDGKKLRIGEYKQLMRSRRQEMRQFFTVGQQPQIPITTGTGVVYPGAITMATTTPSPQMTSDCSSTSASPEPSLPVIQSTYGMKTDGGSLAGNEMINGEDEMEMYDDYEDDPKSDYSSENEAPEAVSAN
UniProt O00193: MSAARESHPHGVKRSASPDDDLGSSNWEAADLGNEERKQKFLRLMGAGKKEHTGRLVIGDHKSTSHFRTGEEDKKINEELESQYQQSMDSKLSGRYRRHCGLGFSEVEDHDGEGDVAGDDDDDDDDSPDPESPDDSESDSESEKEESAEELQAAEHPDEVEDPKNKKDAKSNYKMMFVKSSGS
UniProt O76070, whole entry, looked up: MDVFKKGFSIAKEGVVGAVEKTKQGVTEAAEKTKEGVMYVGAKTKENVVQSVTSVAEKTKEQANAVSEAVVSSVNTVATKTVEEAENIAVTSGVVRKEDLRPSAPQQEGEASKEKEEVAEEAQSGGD
UniProt P53814: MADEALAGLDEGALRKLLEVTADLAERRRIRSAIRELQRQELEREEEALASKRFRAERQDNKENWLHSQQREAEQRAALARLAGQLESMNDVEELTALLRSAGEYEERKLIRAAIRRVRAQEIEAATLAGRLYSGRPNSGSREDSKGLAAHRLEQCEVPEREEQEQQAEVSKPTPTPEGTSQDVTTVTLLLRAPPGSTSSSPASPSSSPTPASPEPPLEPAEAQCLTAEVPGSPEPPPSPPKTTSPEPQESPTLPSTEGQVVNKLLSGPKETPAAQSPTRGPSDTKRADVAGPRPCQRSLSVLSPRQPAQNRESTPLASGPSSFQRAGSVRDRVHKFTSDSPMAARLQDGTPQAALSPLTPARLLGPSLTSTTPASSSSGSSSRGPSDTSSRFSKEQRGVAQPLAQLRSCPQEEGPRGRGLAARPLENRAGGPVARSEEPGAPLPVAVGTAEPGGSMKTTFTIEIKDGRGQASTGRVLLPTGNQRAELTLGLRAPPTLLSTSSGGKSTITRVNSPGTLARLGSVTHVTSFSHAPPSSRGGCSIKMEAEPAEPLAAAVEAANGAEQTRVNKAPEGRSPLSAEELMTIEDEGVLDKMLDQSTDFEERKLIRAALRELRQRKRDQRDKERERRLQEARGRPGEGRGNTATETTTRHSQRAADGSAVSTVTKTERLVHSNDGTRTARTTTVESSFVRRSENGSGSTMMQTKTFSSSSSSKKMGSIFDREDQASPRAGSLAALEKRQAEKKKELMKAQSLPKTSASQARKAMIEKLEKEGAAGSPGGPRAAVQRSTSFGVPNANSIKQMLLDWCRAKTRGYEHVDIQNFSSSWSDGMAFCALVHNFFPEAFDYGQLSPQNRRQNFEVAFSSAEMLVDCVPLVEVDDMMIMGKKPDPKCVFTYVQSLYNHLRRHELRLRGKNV
UniProt Q92484: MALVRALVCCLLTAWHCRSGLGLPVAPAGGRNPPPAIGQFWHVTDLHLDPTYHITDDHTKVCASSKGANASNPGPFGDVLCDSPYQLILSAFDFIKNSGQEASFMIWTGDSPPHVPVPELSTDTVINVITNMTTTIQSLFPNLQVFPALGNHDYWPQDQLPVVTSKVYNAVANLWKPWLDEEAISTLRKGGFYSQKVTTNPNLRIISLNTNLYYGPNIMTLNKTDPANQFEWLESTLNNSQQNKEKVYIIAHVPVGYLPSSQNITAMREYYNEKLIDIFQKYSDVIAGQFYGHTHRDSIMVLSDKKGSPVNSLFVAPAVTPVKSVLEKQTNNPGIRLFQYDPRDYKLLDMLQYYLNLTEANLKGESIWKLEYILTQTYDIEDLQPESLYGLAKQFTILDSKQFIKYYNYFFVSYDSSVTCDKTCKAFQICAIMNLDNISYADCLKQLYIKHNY
UniProt Q969G3, whole entry, looked up: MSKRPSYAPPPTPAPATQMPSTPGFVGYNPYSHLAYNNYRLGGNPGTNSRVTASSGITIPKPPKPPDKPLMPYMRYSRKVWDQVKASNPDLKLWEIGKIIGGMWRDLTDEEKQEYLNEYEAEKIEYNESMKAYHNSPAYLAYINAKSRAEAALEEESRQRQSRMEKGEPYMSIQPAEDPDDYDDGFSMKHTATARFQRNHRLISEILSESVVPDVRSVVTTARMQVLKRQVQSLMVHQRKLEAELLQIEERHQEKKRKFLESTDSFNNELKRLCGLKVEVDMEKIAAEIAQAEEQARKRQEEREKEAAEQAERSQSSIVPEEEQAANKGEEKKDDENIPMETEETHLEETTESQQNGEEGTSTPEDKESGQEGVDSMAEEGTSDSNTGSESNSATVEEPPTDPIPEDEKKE

Assays:
Assay in all cases: log2 fold change, soluble protein after heating vs DMSO (PISA); higher = thermal stabilisation; K562 cells, 10 uM, 30 min; active = over 0.2 and 3.5 SD of the protein, either way, in both replicates (recomputed)
[1] = compound: CC1=C2C(=CC=C1)N=C(N(C2=O)C3=CC=CC=C3C)CN4C=NC5=C(N=CN=C54)N
Summary of the method: (§1)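 K562 cells (2×10^6 cells/mL) were treated with 10 μM compound for 30 min, and aliquots were heated for 3 min over 48°C-58°C. Pooled aliquots were extracted in PBS with 0.5% NP-40 at 4°C, and the supernatant after 21,000xg for 90 min was measured by TMTpro 16plex LC-MS/MS with channel sums equalised. Reported thermal stability, relative to control samples and from duplicates, is a log2 fold change.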

[2] = compound: Cc1sc2c(c1C)C(c1ccc(Cl)cc1)=N[C@@H](CC(=O)OC(C)(C)C)c1nnc(C)n1-2
Summary of the method: as §1

[3] = compound: C1=CC=C(C=C1)[C@H](COC2=CC3=C(C=C2)NC(=O)N3)NC(=O)C4=CC=CN(C4=O)CC5=CC(=C(C=C5)F)F
Summary of the method: as §1

[4] = compound: CC1=C(SC2=C1C(=N[C@H](C3=NN=C(N32)C)CC(=O)N)C4=CC=C(C=C4)Cl)C
Summary of the method: as §1

[5] = compound: c1ccc([C@@H]2C[C@H]2NC2CCNCC2)cc1
Summary of the method: as §1

Measured: log2 fold change

SNAP23 isoform 2 (UniProt O00161)
inactive: [1] -0.503 | [2] 0.277

SLC9A6 isoform 3 (UniProt Q92581)
inactive: [3] -0.057 | [4] 0.003 | [2] -0.005 | [5] 0.089

SNAP47 (UniProt Q5SQN1)
inactive: [1] 0.415

SMARCAL1 (UniProt Q9NZC9)
inactive: [1] 0.19

SMARCD2 (UniProt Q92925)
inactive: [4] -0.031 | [2] -0.054 | [5] -0.35

SNX6 (UniProt Q9UNH7)
inactive: [3] -0.037 | [4] 0.039 | [1] 0.053 | [2] 0.012 | [5] -0.11

SNX16 (UniProt P57768)
inactive: [3] 0.053 | [4] -0.124 | [1] 0.157 | [5] -0.035

SNX4 (UniProt O95219)
inactive: [4] -0.053 | [5] -0.073

SNX2 isoform 2 (UniProt O60749)
inactive: [3] 0.092 | [4] 0.217 | [1] 0.094 | [5] 0.066

SON isoform 9 (UniProt P18583)
inactive: [3] -0.166 | [1] -0.012 | [2] 0.019

SMAP1 isoform 2 (UniProt Q8IYB5)
inactive: [3] 0.015 | [4] 0.047 | [1] -0.013 | [2] 0.02 | [5] 0.014

SMCR8 (UniProt Q8TEV9)
inactive: [3] 0.037 | [4] 0.023 | [2] 0.115 | [5] -0.013

SMG1 (UniProt Q96Q15)
inactive: [3] -0.104 | [4] 0.003 | [1] -0.004 | [2] 0.02 | [5] -0.071

SLC9B2 (UniProt Q86UD5)
inactive: [1] -0.144

SNX14 (UniProt Q9Y5W7)
inactive: [3] 0.057 | [1] 0.013 | [2] 0.1

SOD3 (UniProt P08294)
inactive: [4] 0.007 | [1] 0.037 | [2] -0.358 | [5] -0.025

SMAD3 (UniProt P84022)
inactive: [4] -0.082 | [1] -0.09 | [2] -0.001 | [5] 0.041

SMAGP (UniProt Q0VAQ4)
inactive: [3] -0.298 | [4] 0.059 | [2] -0.061 | [5] -0.136

SLC9A1 (UniProt P19634)
inactive: [3] -0.03 | [1] 0.037 | [2] -0.091

SOX6 (UniProt P35712)
inactive: [4] 0.157 | [1] 0.05 | [5] -0.224

SMIM29 (UniProt Q86T20)
inactive: [4] 0.032 | [5] -0.117

SMAP (UniProt O00193)
inactive: [3] -0.082 | [4] 0.011 | [1] 0.03 | [2] -0.039 | [5] 0.003

SNCG (UniProt O76070)
inactive: [3] 0.015 | [4] 0.028 | [1] 0.035 | [2] 0.022 | [5] 0.019

SMIM1 (UniProt B2RUZ4)
inactive: [3] 0.204 | [4] 0.131 | [2] 0.119 | [5] -0.055

SNAPC5 (UniProt O75971)
inactive: [3] 0.078 | [1] -0.02 | [2] -0.237

SMTN isoform 6 (UniProt P53814)
inactive: [1] -0.156 | [2] 0.017

Taken from the results shown (2 entries):
SNX6 (UniProt Q9UNH7)
inactive: [3] -0.037 | [4] 0.039 | [1] 0.053 | [2] 0.012 | [5] -0.11

SNX16 (UniProt P57768)
inactive: [3] 0.053 | [4] -0.124 | [1] 0.157 | [5] -0.035

Further results follow.

SMARCB1 (UniProt Q12824)
inactive: [4] 0.057 | [1] -0.041 | [2] 0.015 | [5] 0.18

SMPDL3A (UniProt Q92484)
inactive: [2] 0.048

SMARCE1 (UniProt Q969G3)
inactive: [3] -0.156 | [4] -0.002 | [1] 0.338 | [2] 0.111 | [5] -0.051

SOS1 (UniProt Q07889)
inactive: [3] 0.063 | [2] -0.163

SNX27 (UniProt Q96L92)
inactive: [4] -0.144 | [1] -0.003 | [2] 0.118 | [5] 0.001

SMARCA4 (UniProt P51532)
inactive: [3] 0.073 | [4] -0.023 | [1] 0.244 | [5] -0.027
